In paper PMC5261807 (2017) one finds binding data, which are given here for one molecule.

In experiment [1] the target is T1, Bdf2-TAP (S. cerevisiae) (UniProt Q07442).
T1 sequence: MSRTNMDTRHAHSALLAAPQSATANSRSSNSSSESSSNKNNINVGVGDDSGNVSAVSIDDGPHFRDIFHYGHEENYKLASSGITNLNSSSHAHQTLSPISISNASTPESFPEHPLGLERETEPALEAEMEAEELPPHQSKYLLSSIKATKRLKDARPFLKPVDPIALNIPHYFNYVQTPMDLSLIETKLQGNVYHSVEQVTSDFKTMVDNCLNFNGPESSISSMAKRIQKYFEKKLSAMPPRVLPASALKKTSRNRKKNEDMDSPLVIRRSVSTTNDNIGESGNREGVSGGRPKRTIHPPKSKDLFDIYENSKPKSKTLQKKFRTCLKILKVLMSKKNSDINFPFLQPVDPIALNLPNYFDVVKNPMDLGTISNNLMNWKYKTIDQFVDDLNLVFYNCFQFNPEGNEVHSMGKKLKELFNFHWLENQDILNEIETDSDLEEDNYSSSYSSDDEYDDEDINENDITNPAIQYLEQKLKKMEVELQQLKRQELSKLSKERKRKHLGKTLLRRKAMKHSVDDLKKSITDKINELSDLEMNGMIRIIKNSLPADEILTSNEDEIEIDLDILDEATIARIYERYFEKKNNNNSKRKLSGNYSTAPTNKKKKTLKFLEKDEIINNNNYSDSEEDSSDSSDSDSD
As to the kind of experiment: tandem affinity purification with western blot; calmodulin eluates of TAP purifications from TAP-tagged Bdf2 and Swr1 strains, western blot for Bdf1. For orientation: A western blot detects proteins with antibodies after separation by electrophoresis.

Experiment [2] deals with T1, Bdf2-TAP (S. cerevisiae). As to the kind of experiment: co-IP; cells grown on YPD; lysis in HEPES 50 mM pH 7.5, NaCl 140 mM, EDTA 1 mM, glycerol 10%, NP-40 0.5%; Bdf2-TAP immunoprecipitated 2 h at 4°C on Dynabeads Pan Mouse IgG; western blot with Bdf1 antiserum.

Results are given in words; binding and its absence hold for the method and conditions named. For some assays here: In cells and extracts the contact can be indirect. Some binding calls cover weakened binding; strength is not graded here. Tags and fused reporters may be left off the sequences shown.

B1: Bdf1 (wild-type, untagged) (protein, UniProt P35817 1-686)
chain: MTDITPVQNDVDVNGNNVNDDVSSNLKRPIDQGDPSNGLAEEENPANNQLHLKKARLDGDALTSSPAGLAENGIEGATLAANGENGYNATGSGAEDEQQGLKKEEGGQGTKQEDLDENSKQELPMEVPKEPAPAPPPEPDMNNLPQNPIPKHQQKHALLAIKAVKRLKDARPFLQPVDPVKLDIPFYFNYIKRPMDLSTIERKLNVGAYEVPEQITEDFNLMVNNSIKFNGPNAGISQMARNIQASFEKHMLNMPAKDAPPVIAKGRRSSAQEDAPIVIRRAQTHNGRPKRTIHPPKSKDIYPYESKKPKSKRLQQAMKFCQSVLKELMAKKHASYNYPFLEPVDPVSMNLPTYFDYVKEPMDLGTIAKKLNDWQYQTMEDFERDVRLVFKNCYTFNPDGTIVNMMGHRLEEVFNSKWADRPNLDDYDSDEDSRTQGDYDDYESEYSESDIDETIITNPAIQYLEEQLARMKVELQQLKKQELEKIRKERRLARGSKKRGKRSKGRSGSKNASSKGRRDKKNKLKTVVTYDMKRIITERINDLPTSKLERAIDIIKKSMPNISEDDEVELDLDTLDNHTILTLYNTFFRQYESSSGASNGLDGTSGVTRDASSLSPTSAGSRKRRSKALSQEEQSRQIEKIKNKLAILDSASPLSQNGSPGQIQSAAHNGFSSSSDDDVSSESEEE
Regarding B1, the binding result in the experiment with Bdf2-TAP (S. cerevisiae) [1] and in the experiment with Bdf2-TAP (S. cerevisiae) [2] was “binds” in each case.
